From PubChem BioAssay AID540256 (National Center for Advancing Translational Sciences (NCATS), 2011)
Where “and” joins values, the source holds several entries; their conditions need not be identical. Equal values may be shown once. Out of some 300,000 compounds screened, about 3,700 (1.2%) were called active. The shares of active, inactive and inconclusive entries below differ from those in the screen. Calls follow the shape of the full dose curve; tested in HEK293 cells. Where the call is inconclusive, the potency comes from a doubtful curve fit.

assay: qHTS for Inhibitors of binding or entry into cells for Lassa Virus; conditions: Lassa virus pseudotype entry inhibition, cell reporter; activity change, negative = inhibition: at 37.9 µM (top of the series) unless noted; also: nearly all actives have a fitted effect of over 50% in size
% is scaled to controls: 0 for no effect and ±100 for the full control effect; potency is read from the fitted curve at half-maximal effect.

Row | Structure (SMILES) | Potency | activity change, negative = inhibition
1 | COc1cc2c(=O)n(CCC(=O)NCC3CCCO3)c(=O)n(CC(=O)Nc3ccc(F)cc3)c2cc1OC (stereo not drawn) | inactive and inconclusive: 5.62 µM [inhibitor, single point] | 
2 | CCOc1ccc2nc(SCc3ccc(F)cc3)sc2c1 |  | inactive: -28.5%
3 | CCSc1nc2c(c(=O)[nH]1)C(c1ccncc1)C(C(=O)OC(C)C)=C(C)N2 (stereo not drawn) |  | inactive: 2.3%
4 | COc1ccc(S(=O)(=O)N(CC(=O)Nc2cccnc2)c2ccc(C)cc2)cc1OC | inconclusive: 3.55 µM [inhibitor, partial curve] | 
5 | COc1ccc2nc(SCC(=O)Nc3ccccc3)[nH]c2c1 | inconclusive: 11.6 µM [inhibitor, partial curve, poor fit] | 
6 | CCS(=O)(=O)Nc1cc(C(=O)OC)ccc1C(=O)OC | inconclusive: 29.1 µM [activator, single point] | 
7 | CC(C)CC(=O)NC(=S)Nc1ccc(S(=O)(=O)NC(C)(C)C)cc1 | inconclusive: 18.4 µM [inhibitor, single point] | 
8 | Cc1ccc2[nH]c(=O)c(CN(Cc3ccco3)S(=O)(=O)c3c(C)ccc4nsnc34)cc2c1 | inconclusive: 9.2 µM [inhibitor, partial curve, poor fit] | 
9 | Cc1ccc(C)c(Cn2c3ccccc3c3cnn(CC(=O)NC(C)c4ccccc4)c(=O)c32)c1 (stereo not drawn) |  | inactive: -8.29% [at 46.1 µM]
10 | COc1ccccc1CC(=O)Nc1ccc2nc(N3CCC(C)CC3)cc(C)c2c1 | inconclusive: 2.24 µM [inhibitor, partial curve, poor fit] | 
11 | COc1ccc(CN2CNc3c(c(=O)n(C)c(=O)n3C)C2)cc1 | inconclusive: 1.26 µM [activator, single point] | 
12 | CCOC(=O)c1c(NC(=S)Nc2ccccc2)sc2c1CCCCC2 |  | inactive: -14.1%
13 | CCN1CCN(CCNC(=O)c2ccc(CS(=O)c3ccc(Cl)cc3)o2)CC1 (stereo not drawn) | inconclusive: 15.8 µM [activator, single point] | 
14 | Cc1sc2ncnc(SCC(=O)NC3CCCC3)c2c1C | inconclusive: 1 µM [inhibitor, full curve, poor fit] | 
15 | O=C1/C(=C/c2cccc([N+](=O)[O-])c2)N2CCC1CC2 |  | inactive: 7.44%
16 | COc1ccc(CCc2ccnc3ccccc23)cc1 |  | inactive: -11.4% [at 46.1 µM]
17 | CC(C)(C)c1ccc(CN2N=C(/C=C/c3ccccc3)CCC2=O)cc1 | inconclusive: 1 µM [inhibitor, full curve, poor fit] | 
18 | CC1=CC(C)(C)Nc2ccc(OC(=O)CN3C(=O)c4ccccc4C3=O)cc21 | inconclusive: 15.8 µM [inhibitor, single point] | 
19 | COc1ccc(NC(=O)CCN2CCN(c3ccccc3F)CC2)c(OC)c1 |  | inactive: -25.2%
20 | Cc1cc(C)c(S(C)(=O)=O)c(Oc2ccc(C(C)(C)C)cc2)n1 | inconclusive: 1.26 µM [inhibitor, single point] | 
21 | CC(=O)C1=C(O)C(=O)N(c2ccc(F)cc2)C1c1ccc(C)cc1 (stereo not drawn) |  | inactive: -0.0154% [at 46.1 µM]
22 | CCc1ccc(C2NC(=O)c3[nH]nc(-c4cccc(OC)c4)c32)cc1 (stereo not drawn) |  | inactive: -5.1% [at 46.1 µM]
23 | CCOC(=O)N1CCN(C(=O)c2ccc(Oc3ccc([N+](=O)[O-])cc3)cc2)CC1 |  | inactive: -20.5%

Row | Structure (SMILES) | Potency | activity change, negative = inhibition
24 | Cc1cc(NC(=O)CSc2nnc(-c3ccoc3C)o2)no1 | inconclusive: 18.3 µM [activator, partial curve, poor fit] | 
25 | CS(=O)(=O)N1CCN(c2nnc(-c3ccccc3)c3ccccc23)CC1 |  | inactive: -30.2%
26 | Cc1ccc(CNC(=O)C(=O)NCC(c2cccnc2)N2CCN(c3ccccc3F)CC2)cc1 (stereo not drawn) | inconclusive: 12.6 µM [inhibitor, partial curve, poor fit] | 
27 | Cc1ccsc1CN(C(=O)c1oc2ccccc2c1C)C1CCS(=O)(=O)C1 (stereo not drawn) | inconclusive: 11.2 µM [inhibitor, single point] | 
28 | CCC(=O)NC(c1ccc([N+](=O)[O-])cc1)c1c(O)ccc2ccccc12 (stereo not drawn) |  | inactive: -15.5%
29 | Cc1nn(C)c(C)c1CN(Cc1nc(CCC(C)C)no1)C(C)C | inconclusive: 5.62 µM [inhibitor, single point] | 
30 | CC1CCN(CC(=O)Nc2ccc3c(c2)OCO3)CC1 | inconclusive: 3.55 µM [activator, partial curve] | 
31 | CC(C)CCN(C(=O)c1csnn1)C(C(=O)NC1CCCC1)c1ccc(F)cc1 (stereo not drawn) | inconclusive: 0.891 µM [inhibitor, single point] | 
32 | COc1cccc2sc(N3CCN(C(=O)CCS(=O)(=O)c4ccc(F)cc4)CC3)nc12 | inconclusive: 35.5 µM [inhibitor, single point] | 
33 | COc1ccc(C(c2nnnn2C2CCCC2)N2CCC(C)CC2)c(OC)c1 (stereo not drawn) | inconclusive: 28.2 µM [inhibitor, single point] | 
34 | Fc1ccccc1CSc1ncnc2c1ncn2C1CCCO1 (stereo not drawn) | inconclusive: 3.55 µM [inhibitor, full curve, poor fit] | 
35 | O=C(N/N=C/c1ccoc1)c1cccc([N+](=O)[O-])c1 | inconclusive: 35.5 µM [activator, single point] | 
36 | CCOC(=O)N1CCC(NC(=O)c2ccc3c(Cl)c4c(nc3c2)CCCC4)CC1 | inconclusive: 23.1 µM [inhibitor, single point] | 
37 | CC(C)(Cc1ccc(O)cc1)NC(=O)SCc1ccccc1 | inconclusive: 12.6 µM [inhibitor, partial curve, poor fit] | 
38 | CCc1ccccc1OCC(=O)OCC(=O)c1c(N)n(C)c(=O)n(C)c1=O | inconclusive: 35.5 µM [inhibitor, single point] | 
39 | O=C(Nc1cccs1)Nc1c(F)c(F)c(F)c(F)c1F | inconclusive: 6.31 µM [inhibitor, single point] | 
40 | O=C(CCCn1c(=O)[nH]c2ccc(Br)cc2c1=O)NCc1ccc(Cl)cc1 | inconclusive: 0.891 µM [inhibitor, partial curve, poor fit] | 
41 | COc1ccc(N(C)S(=O)(=O)c2cccc(C(=O)Nc3cccc(C(=O)NC4CC4)c3)c2)cc1 | inconclusive: 35.5 µM [inhibitor, single point] | 
42 | O=C(CN1CC=C(c2ccccc2)CC1)NC(=O)NCc1ccccc1 | inconclusive: 11.2 µM [inhibitor, partial curve] | 
43 | CCCOc1ccccc1C1Oc2nc(SC)nnc2-c2ccccc2N1C(C)=O (stereo not drawn) | inconclusive: 3.98 µM [inhibitor, single point] | 
44 | Cc1csc(Nc2ccccc2C(F)(F)F)n1 |  | inactive: 7.07%
45 | COc1ccccc1N(C)S(=O)(=O)c1ccc(C(=O)Nc2ncc(C)s2)cc1 | inconclusive: 20 µM [inhibitor, single point] | 
46 | CNC(=O)CCSSCCC(=O)NC |  | inactive: 14.9%

Row | Structure (SMILES) | Potency | activity change, negative = inhibition
47 | Cc1c(CC(=O)N[C@H](C(=O)O)C(C)C)c(=O)oc2cc3c(cc12)CCC(C)(C)O3 | inconclusive: 12.6 µM [activator, partial curve, poor fit] | 
48 | Cc1ccccc1NC(=O)COC(=O)/C=C/c1cn(-c2ccccc2)nc1-c1cccnc1 |  | inactive: -11.7%
49 | Cc1cc(C)c(C(=O)CSC2=NC(N)=C(C#N)C3(CCCCC3)C2C(N)=O)cc1C (stereo not drawn) |  | inactive: -19.4% [at 14.3 µM]
50 | COC(=O)/C=C1\NC(=O)C(C)S1 (stereo not drawn) | inconclusive: 2.82 µM [inhibitor, partial curve, poor fit] | 
51 | COc1cc(C2c3c(-c4cc(C)cc(C)c4O)n[nH]c3C(=O)N2CCCO)cc(OC)c1OC (stereo not drawn) | active: 8.2 µM | 
52 | Cc1ccc(/C=C/C(=O)Nc2cccc(S(=O)(=O)N3CCOCC3)c2)o1 |  | inactive: 4.44%
53 | CCCOc1ccc(C(=O)OCC(=O)NCCc2ccc(OCC)c(OCC)c2)cc1OC |  | inactive: 17.7% [at 46.1 µM]
54 | Oc1ccc(C=NN=C2c3ccccc3-c3ccccc32)c(O)c1 |  | inactive: -12.7%
55 | COc1ccc(NC(=O)c2cc(OC)c(OC)c(OC)c2)cc1S(=O)(=O)N1CCCCC1 | inconclusive: 35.5 µM [inhibitor, single point] | 
56 | CCN(CC)C(=O)Cn1cc(S(=O)(=O)CC(=O)NCc2ccc(C)cc2)c2ccccc21 | inconclusive: 6.31 µM [activator, single point] | 
57 | O=C(CSc1nnc2ccccn12)c1ccc2c(c1)OCCO2 | inconclusive: 35.5 µM [inhibitor, single point] | 
58 | CCOc1ccc(C(=O)CC(=O)C(=O)NCCc2ccc(OC)c(OC)c2)cc1 |  | inactive: -11.4%
59 | Cc1c(-c2ccc(OCc3ccccc3)cc2)nc2ccccc2c1C(=O)O | inconclusive: 11.2 µM [inhibitor, partial curve, poor fit] | 
60 | S=C(NCc1ccco1)N1CCN(c2nc(-c3ccc(Cl)cc3)cs2)CC1 | inconclusive: 35.5 µM [inhibitor, single point] | 
61 | Cc1ccc(-n2nc(C)c3c(C)c(CCC(=O)O)c(C)nc32)cc1 | inconclusive: 35.5 µM [inhibitor, single point] | 
62 | CC(=Nc1ccccc1)C1=C(O)C(Cc2ccc(O)cc2)NC1=O (stereo not drawn) | inconclusive: 1.26 µM [inhibitor, partial curve] | 
63 | CCOC(=O)c1nnn(CC(=O)N2N=C(c3ccccc3)CC2c2ccccc2)c1C(=O)OCC (stereo not drawn) |  | inactive: -18.7%
64 | COc1ccc(CCn2c(=N)c(C(=O)NCCN3CCOCC3)cc3c(=O)n4ccccc4nc32)cc1OC |  | inactive: 1.85% [at 46.1 µM]
65 | CCOC(=O)C(C)Oc1nc(Oc2ccccc2)nc(N(C)C)n1 (stereo not drawn) | inconclusive: 5.62 µM [inhibitor, partial curve, poor fit] | 
66 | CCN(CC)S(=O)(=O)c1ccc(C(=O)NCCSc2c(-c3ccc(OC)cc3)[nH]c3ccccc23)cc1 | inconclusive: 3.98 µM [inhibitor, full curve] | 
67 | O=C(O)c1ccc2c(=O)[nH]c(CCl)nc2c1 |  | inactive: 0.797%
68 | CC(=O)c1c(C)oc2ccc(N(C(=O)c3ccncc3)S(=O)(=O)c3ccc(C)cc3C)cc12 |  | inactive: 4.99% [at 46.1 µM]

Quoted at random: 4 compounds from above
Row | Structure (SMILES) | Potency | activity change, negative = inhibition
54 | Oc1ccc(C=NN=C2c3ccccc3-c3ccccc32)c(O)c1 |  | inactive: -12.7%
68 | CC(=O)c1c(C)oc2ccc(N(C(=O)c3ccncc3)S(=O)(=O)c3ccc(C)cc3C)cc12 |  | inactive: 4.99% [at 46.1 µM]
67 | O=C(O)c1ccc2c(=O)[nH]c(CCl)nc2c1 |  | inactive: 0.797%
49 | Cc1cc(C)c(C(=O)CSC2=NC(N)=C(C#N)C3(CCCCC3)C2C(N)=O)cc1C (stereo not drawn) |  | inactive: -19.4% [at 14.3 µM]

Two entries from above, field by field.
CCN(CC)C(=O)Cn1cc(S(=O)(=O)CC(=O)NCc2ccc(C)cc2)c2ccccc21
  Potency: inconclusive: 6.31 µM [activator, single point]
CC(=Nc1ccccc1)C1=C(O)C(Cc2ccc(O)cc2)NC1=O (stereo not drawn)
  Potency: inconclusive: 1.26 µM [inhibitor, partial curve]
